Experimental data taken from PubChem BioAssay AID248 (DTP/NCI, 2004).
The list is a part of this screen's results and no random one: it is rich in T/C values a quarter to a half above the control, in often repeated tests (any T/C) and in doses without a T/C. Further doses and runs are listed elsewhere. T/C: endpoint of the treated group in % of that of the vehicle group. Some doses have a count of surviving animals in place of a T/C: the source holds a T/C of zero for them, seemingly a mark for toxic or unscored doses. Some doses without a T/C left all or most animals alive at the check, yet need not have been tolerated: the source hardly ever lists a survival T/C far under the control, and the zero likely stands for such cases as well. Counts of survivors are from the toxicity check (mostly the fifth day) where no day follows; animals may have died later. Schedule codes are those of the source, taken here to give the interval after Q, in days (D) or hours (H), and the number of doses after X. Some entries were tested several times; the values are given in rising order. Some schedules carry Z or #; the key to these is not given. Some structures stand for samples that the source files as different forms (salt, stereo form or complex); doses refer to the form tested. Where survival is the endpoint, the PubChem record calls one and a half times the control and up active, and a quarter to a half above the control has no call in these data; cut-offs in other NCI protocols can differ. Some T/C values carry the count of animals alive at the toxicity check (mostly the fifth day); without a count, all were alive then.

Tested on: L1210 leukemia ip in BDF1 mice, survival T/C
Test: NCI In Vivo Anticancer Drug Screen. Data for tumor model L1210 Leukemia (intraperitoneal) in B6D2F1 (BDF1) mice
Details: higher T/C = longer survival
[1] = T/C endpoint: mean survival time, dose: 200.0 mg/kg/injection, schedule: Q04DX003 (ip), vehicle: saline with Tween-80
[2] = T/C endpoint: mean survival time, dose: 400.0 mg/kg/injection, schedule: Q04DX003 (ip), vehicle: saline with Tween-80
[3] = T/C endpoint: mean survival time, dose: 400.0 mg/kg/injection, schedule: Q01DX001 (ip), vehicle: Klucel (hydroxypropylcellulose) (HPC)
[4] = T/C endpoint: mean survival time, dose: 400.0 mg/kg/injection, schedule: Q01DX009 (ip), vehicle: acetone
[5] = T/C endpoint: mean survival time, dose: 200.0 mg/kg/injection, schedule: Q01DX009 (ip), vehicle: saline with Tween-80
[6] = T/C endpoint: mean survival time, dose: 400.0 mg/kg/injection, schedule: Q01DX001 (ip), vehicle: carboxymethylcellulose (CMC)

Nc1ncnc2c1ncn2C1CCCCC1 was tested, and the survivor count (T/C endpoint: mean survival time, dose: 136.0 mg/kg/injection, schedule: Q01DX Z (ip), vehicle: carboxymethylcellulose (CMC)) was 6 of 6 and the survivor count (T/C endpoint: mean survival time, dose: 272.0 mg/kg/injection, schedule: Q01DX Z (oral), vehicle: carboxymethylcellulose (CMC)) was 3 of 6.
With CNC(=O)N(c1ccccc1)C1CCCCC1 the survivor count (T/C endpoint: mean survival time, dose: 400.0 mg/kg/injection, schedule: Q04DX003 (ip), vehicle: saline) was 6 of 6.
For ClCc1ccccc1CCl, the survivor count (T/C endpoint: mean survival time, dose: 20.0 mg/kg/injection, schedule: Q01DX015 (ip), vehicle: carboxymethylcellulose (CMC)) was 6 of 6 and the survivor count (T/C endpoint: mean survival time, dose: 40.0 mg/kg/injection, schedule: Q01DX015 (ip), vehicle: carboxymethylcellulose (CMC)) was 6 of 6.
For CC1(O)C=CCC1 (stereo unspecified), the survivor count (T/C endpoint: mean survival time, dose: 300.0 mg/kg/injection, schedule: Q01DX001 (ip), vehicle: carboxymethylcellulose (CMC)) was 2 of 6.
CC1(C)OCC(C2OC(=O)C=C2OS(=O)(=O)O)O1 (stereo unspecified) was tested, and the survivor count (T/C endpoint: mean survival time, dose: 150.0 mg/kg/injection, schedule: Q01DX001 (ip), vehicle: saline) was 1 of 6 and the survivor count (T/C endpoint: mean survival time, dose: 300.0 mg/kg/injection, schedule: Q01DX001 (ip), vehicle: saline) was 0 of 6.
With CC1(C)Oc2ccccc2O1 the survivor count [1] was 0 of 6 and the survivor count [2] was 0 of 6.
With O=C(N/N=C/c1cccc([N+](=O)[O-])c1)C(O)C(O)C(O)C(O)CO (stereo unspecified) the survivor count (T/C endpoint: mean survival time, dose: 400.0 mg/kg/injection, schedule: Q01DX009 (ip), vehicle: carboxymethylcellulose (CMC)) was 2 of 6.
CCCCCCCCCCCCCCCCCc1c(Cl)c(Cl)c(Cl)c(Cl)c1Cl was tested, and the survivor count (T/C endpoint: mean survival time, dose: 200.0 mg/kg/injection, schedule: Q01DX001 (ip), vehicle: Klucel (hydroxypropylcellulose) (HPC)) was 6 of 6 and the survivor count [3] was 6 of 6.
With CN1C2CCC1CC(OC(c1ccccc1)c1ccccc1)C2 (stereo unspecified) the survivor count (T/C endpoint: mean survival time, dose: 26.0 mg/kg/injection, schedule: Q01DX009 (ip), vehicle: saline) was 2 of 6, the survivor count (T/C endpoint: mean survival time, dose: 40.0 mg/kg/injection, schedule: Q01DX009 (ip), vehicle: saline) was 0 of 6 and 1 of 6 and the survivor count (T/C endpoint: mean survival time, dose: 50.0 mg/kg/injection, schedule: Q01DX009 (ip), vehicle: saline) was 0 of 6. For the same molecule, the survivor count (T/C endpoint: mean survival time, dose: 80.0 mg/kg/injection, schedule: Q01DX001 (ip), vehicle: saline) was 0 of 6, the survivor count (T/C endpoint: mean survival time, dose: 80.0 mg/kg/injection, schedule: Q01DX009 (ip), vehicle: saline) was 0 of 6 and the survivor count (T/C endpoint: mean survival time, dose: 100.0 mg/kg/injection, schedule: Q01DX001 (ip), vehicle: saline) was 0 of 6. The survivor count (T/C endpoint: mean survival time, dose: 125.0 mg/kg/injection, schedule: Q01DX001 (ip), vehicle: acetone) was 0 of 6, the survivor count (T/C endpoint: mean survival time, dose: 160.0 mg/kg/injection, schedule: Q01DX009 (ip), vehicle: saline) was 0 of 6 and the survivor count (T/C endpoint: mean survival time, dose: 200.0 mg/kg/injection, schedule: Q01DX001 (ip), vehicle: saline) was 0 of 6. The survivor count (T/C endpoint: mean survival time, dose: 250.0 mg/kg/injection, schedule: Q01DX001 (ip), vehicle: acetone) was 1 of 6, the survivor count (T/C endpoint: mean survival time, dose: 320.0 mg/kg/injection, schedule: Q01DX009 (ip), vehicle: saline) was 0 of 6 and the survivor count (T/C endpoint: mean survival time, dose: 400.0 mg/kg/injection, schedule: Q01DX001 (ip), vehicle: saline) was 0 of 6. For the same molecule, the survivor count (T/C endpoint: mean survival time, dose: 500.0 mg/kg/injection, schedule: Q01DX001 (ip), vehicle: acetone) was 0 of 6, the survivor count (T/C endpoint: mean survival time, dose: 800.0 mg/kg/injection, schedule: Q01DX001 (ip), vehicle: saline) was 0 of 6 and the survivor count (T/C endpoint: mean survival time, dose: 1000.0 mg/kg/injection, schedule: Q01DX001 (ip), vehicle: acetone) was 0 of 6.
For CCCCCCCCCCCCCCCCC/C=N\NC(=O)CCCC(=O)N/N=C/CCCCCCCCCCCCCCCCC, the survivor count (T/C endpoint: mean survival time, dose: 100.0 mg/kg/injection, schedule: Q01DX001 (ip), vehicle: other) was 4 of 4 and the survivor count (T/C endpoint: mean survival time, dose: 400.0 mg/kg/injection, schedule: Q01DX001 (ip), vehicle: other) was 4 of 4.
For O=C(COc1ccccc1)Nc1cccnc1, the survivor count [3] was 0 of 3.
CN(C)C(=O)c1cc(NC(=O)Nc2ccc(C3=NCCN3)cc2)cc(NC(=O)Nc2ccc(C3=NCCN3)cc2)c1 was tested, and the T/C (T/C endpoint: mean survival time, dose: 120.0 mg/kg/injection, schedule: Q01DX Z (ip), vehicle: saline) was 136 % of control [5 of 6 alive].
With CSC(NC(=O)c1ccc([N+](=O)[O-])cc1)C(N)=O (stereo unspecified) the survivor count (T/C endpoint: mean survival time, dose: 25.0 mg/kg/injection, schedule: Q04DX002 (ip), vehicle: Klucel (hydroxypropylcellulose) (HPC)) was 3 of 3 and the T/C (T/C endpoint: mean survival time, dose: 100.0 mg/kg/injection, schedule: Q04DX002 (ip), vehicle: Klucel (hydroxypropylcellulose) (HPC)) was 125 % of control.
For CCOC(=N)c1cn(C2OC(CO)C(O)C2O)c2ncnc(N)c12 (stereo unspecified), the T/C (T/C endpoint: mean survival time, dose: 0.4 mg/kg/injection, schedule: Q01DX009 (ip), vehicle: saline with Tween-80) was 127 % of control, the T/C (T/C endpoint: mean survival time, dose: 0.4 mg/kg/injection, schedule: Q01DX009 (ip), vehicle: saline) was 125 and 126 % of control and the survivor count (T/C endpoint: mean survival time, dose: 1.3 mg/kg/injection, schedule: Q01DX009 (ip), vehicle: saline) was 3 of 6. For the same molecule, the survivor count (T/C endpoint: mean survival time, dose: 2.0 mg/kg/injection, schedule: Q01DX009 (ip), vehicle: saline) was 5 of 6, the survivor count (T/C endpoint: mean survival time, dose: 3.0 mg/kg/injection, schedule: Q01DX009 (ip), vehicle: saline) was 6 of 6 and the survivor count (T/C endpoint: mean survival time, dose: 5.0 mg/kg/injection, schedule: Q01DX009 (ip), vehicle: saline) was 4 of 6 and 6 of 6. For the same molecule, the survivor count (T/C endpoint: mean survival time, dose: 7.0 mg/kg/injection, schedule: Q01DX009 (ip), vehicle: saline) was 2 of 6, the survivor count (T/C endpoint: mean survival time, dose: 10.0 mg/kg/injection, schedule: Q01DX009 (ip), vehicle: saline) was 1 of 6 and the survivor count (T/C endpoint: mean survival time, dose: 15.0 mg/kg/injection, schedule: Q01DX009 (ip), vehicle: saline) was 0 of 6.
For CNC1(Cc2ccc(F)cc2)CCC1, the survivor count (T/C endpoint: mean survival time, dose: 200.0 mg/kg/injection, schedule: Q01DX009 (ip), vehicle: saline) was 0 of 6 and the survivor count (T/C endpoint: mean survival time, dose: 400.0 mg/kg/injection, schedule: Q01DX009 (ip), vehicle: saline) was 0 of 6.
C=C(Cl)CSCCCS was tested, and the survivor count [4] was 0 of 6.
In the case of COC(=O)c1ccccc1C1=C(O)C(=O)C(c2ccccc2C(=O)OC)=C(O)C1=O, the survivor count (T/C endpoint: mean survival time, dose: 400.0 mg/kg/injection, schedule: Q01DX009 (ip), vehicle: Klucel (hydroxypropylcellulose) (HPC)) is reported as 0 of 6.
COc1cc([N+](C)(C)C)nc(OC)n1 was tested, and the survivor count (T/C endpoint: mean survival time, dose: 75.0 mg/kg/injection, schedule: Q01DX Z (ip), vehicle: saline) was 2 of 6.
With COc1cc(Cl)ccc1C the survivor count [2] was 2 of 6.
For NC(CCl)=NC1CN2CCC1CC2 (stereo unspecified), the survivor count (T/C endpoint: mean survival time, dose: 100.0 mg/kg/injection, schedule: Q04DX002 (ip), vehicle: saline) was 1 of 3, the survivor count (T/C endpoint: mean survival time, dose: 200.0 mg/kg/injection, schedule: Q04DX002 (ip), vehicle: saline) was 1 of 3 and the survivor count (T/C endpoint: mean survival time, dose: 400.0 mg/kg/injection, schedule: Q04DX002 (ip), vehicle: saline) was 1 of 3.
In the case of CC(CSc1ccccc1)NCCO (stereo unspecified), the survivor count [1] is reported as 0 of 6 and the survivor count [2] is reported as 0 of 6.
For c1ccc(CNCCCNCc2ccccn2)nc1, the survivor count [5] was 5 of 6.
COC(=O)c1ccccc1N=NN(C)C was tested, and the survivor count [6] was 0 of 4 and the survivor count (T/C endpoint: median survival time, dose: 500.0 mg/kg/injection, schedule: Q01DX001 (ip), vehicle: steroid suspending solution) was 0 of 8.
Cc1cccc(C)c1C1=NCCN1 was tested, and the survivor count (T/C endpoint: mean survival time, dose: 100.0 mg/kg/injection, schedule: Q01DX009 (ip), vehicle: saline with Tween-80) was 3 of 6, the survivor count [5] was 0 of 6 and the survivor count (T/C endpoint: mean survival time, dose: 400.0 mg/kg/injection, schedule: Q01DX009 (ip), vehicle: saline with Tween-80) was 0 of 6.
For CCC12CC3(C(=O)OC)OC1C(O)CN1CCc4c(n3c3cc(OC)ccc43)C12 (stereo unspecified), the survivor count (T/C endpoint: mean survival time, dose: 100.0 mg/kg/injection, schedule: Q04DX002 (ip), vehicle: saline with Tween-80) was 3 of 3.
For CN(C)/C(=C\C(=O)c1ccccc1)c1ccccc1, the survivor count [1] was 3 of 3.
With N#C/C(=C1C=C(Br)/C(=N\O)C=C\1Cl)c1ccc(Cl)cc1 the survivor count (T/C endpoint: mean survival time, dose: 200.0 mg/kg/injection, schedule: Q01DX009 (ip), vehicle: acetone) was 5 of 6 and the survivor count [4] was 2 of 6.
Cc1ccc(C(=O)NN2C(N)=NC(N)=NC2(C)C)cc1 was tested, and the survivor count (T/C endpoint: mean survival time, dose: 400.0 mg/kg/injection, schedule: Q01DX009 (ip), vehicle: saline sonified) was 0 of 6.
NNc1ccc2cccc(O)c2n1 was tested, and the survivor count [6] was 4 of 4.
